Source: patent US20230070988A1, “COMBINATIONS OF EGFR INHIBITORS AND ROR1 INHIBITORS FOR THE TREATMENT OF CANCER” (priority 2020, published 2023)
For at least one compound, name, drawing or mass did not settle the structure.

Experiments:
[1] = test system: NCI-H1975 cells; test: NCI-H1975 cells treated in vitro, dose response; assay type: cell-based; conditions: not said whether in vitro or in vivo; see FIG. 2 and FIG. 3A-3D
Procedure: (§1) Experiments were performed using NCI-H1975, a NSCLC adenocarcinoma cell line. NCI-H1975 has an L858R mutation that increases EGFR activity.

[2] = test system: NCI-H1975; test: NCI-H1975 cell line xenograft mouse model of NSCLC; assay type: in vivo, mice (human NSCLC adenocarcinoma cell line); conditions: UC-961 10 mg/kg i.v. QW × 4, erlotinib 50, gefitinib 100, afatinib 15 mg/kg p.o. QD × 21 days, FIG. 5A-5B
Procedure: as §1
After tumor cell inoculation, the animals were checked daily for morbidity and mortality. […] Mortality and observed clinical signs were recorded for individual animals in detail.
Tumor volumes were measured twice per week in two dimensions using a caliper, and the volume was expressed in mm^3 using the formula: “V=(L×W×W)/2, where V is tumor volume, L is tumor length (the longest tumor dimension) and W is tumor width (the longest tumor dimension perpendicular to L). Dosing as well as tumor and body weight measurements were conducted in a Laminar Flow Cabinet.

CN(C)C/C=C/C(=O)Nc1cc2c(Nc3ccc(F)c(Cl)c3)ncnc2cc1O[C@H]1CCOC1 [afatinib]
activity against NCI-H1975 [1]: moderate activity
anti-tumor effect (in words) [2]: modest anti-tumor effect
